Reference: US6245743A, “Inhibitors of factor Xa” (COR Therapeutics, Inc., priority 1998, dated 2001)
At least one compound was matched to its structure with a doubt left.

Experiments:
Format in all cases: biochemical
[1] = biological target: prothrombinase complex (Homo sapiens, UniProt P00742); assay: Prothrombinase inhibition assay, plasma free system (thrombin generation, Chromozym TH); conditions: read-out: Inhibitory Activity (IC50) Prothrombinase
[2] = biological target: factor Xa (Homo sapiens, UniProt P00742); assay: Factor Xa amidolytic assay (chromogenic substrate S2765); conditions: read-out: Inhibitory Activity (IC50) Factor Xa
[3] = biological target: T1, thrombin (Homo sapiens, UniProt P00734); assay: Thrombin amidolytic assay (Chromozym TH); conditions: read-out: Inhibitory Activity (IC50) Thrombin
T1 construct: The formation of thrombin is the result of the proteolytic cleavage of its precursor prothrombin

Structure (SMILES): CC(C)(C)OC(=O)N[C@H](CCCNC(=N)N)C(=O)NCC(=O)N[C@@H](CCCNC(=N)N)C(=O)C(=O)NCCc1ccccc1 [Boc-D-Arg-Gly-Arg-CONHEtPh]
- IC50 [1]: 23 nM
- IC50 [2]: 16 nM
- IC50 [3]: 4000 nM
